Assay results as given in paper PMC10412619.
Results are given in words; binding and its absence hold for the method and conditions named. Binding seen in cells or lysates may run through a third protein. Here binding means that the protein was enriched with, or labelled near, the bait; the list need not be complete.

By UniProt entry, the sequences of proteins in these tests, tags left out.
UniProt P98170: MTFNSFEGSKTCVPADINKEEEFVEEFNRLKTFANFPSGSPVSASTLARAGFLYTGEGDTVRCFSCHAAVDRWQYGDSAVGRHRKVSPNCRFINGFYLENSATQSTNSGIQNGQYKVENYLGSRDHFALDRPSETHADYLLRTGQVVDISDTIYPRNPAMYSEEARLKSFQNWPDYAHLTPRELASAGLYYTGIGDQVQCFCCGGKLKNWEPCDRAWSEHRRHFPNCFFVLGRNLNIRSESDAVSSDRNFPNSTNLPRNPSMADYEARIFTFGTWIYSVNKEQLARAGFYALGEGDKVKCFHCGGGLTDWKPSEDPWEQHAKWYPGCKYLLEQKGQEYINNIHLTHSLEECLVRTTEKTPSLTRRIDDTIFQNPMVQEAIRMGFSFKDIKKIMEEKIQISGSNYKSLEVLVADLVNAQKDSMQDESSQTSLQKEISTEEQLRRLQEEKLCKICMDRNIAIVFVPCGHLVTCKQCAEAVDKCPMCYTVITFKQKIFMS

Target: T1, DNA polymerase iota (POLI) (human (endogenous in TE-1)) (UniProt Q9UNA4)
T1 sequence: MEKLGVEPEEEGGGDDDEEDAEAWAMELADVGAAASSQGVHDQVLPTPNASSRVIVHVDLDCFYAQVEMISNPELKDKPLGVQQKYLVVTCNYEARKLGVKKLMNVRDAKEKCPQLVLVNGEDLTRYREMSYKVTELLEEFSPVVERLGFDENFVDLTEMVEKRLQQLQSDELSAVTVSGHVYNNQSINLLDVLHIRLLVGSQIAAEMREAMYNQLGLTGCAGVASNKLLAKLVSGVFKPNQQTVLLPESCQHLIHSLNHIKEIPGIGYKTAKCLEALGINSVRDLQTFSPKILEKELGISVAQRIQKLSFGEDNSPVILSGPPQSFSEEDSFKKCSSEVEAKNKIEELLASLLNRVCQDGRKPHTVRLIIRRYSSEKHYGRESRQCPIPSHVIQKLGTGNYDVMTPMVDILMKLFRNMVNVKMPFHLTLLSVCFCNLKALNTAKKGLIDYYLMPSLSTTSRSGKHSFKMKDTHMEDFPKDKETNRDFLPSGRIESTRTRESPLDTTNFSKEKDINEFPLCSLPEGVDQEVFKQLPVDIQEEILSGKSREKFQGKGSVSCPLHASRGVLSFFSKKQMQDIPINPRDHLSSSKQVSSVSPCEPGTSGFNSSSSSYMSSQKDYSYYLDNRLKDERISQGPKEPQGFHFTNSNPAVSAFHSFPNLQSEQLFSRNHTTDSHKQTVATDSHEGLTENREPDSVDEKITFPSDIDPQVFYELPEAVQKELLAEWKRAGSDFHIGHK
Assay: affinity purification with mass spectrometry; immunoprecipitation from cell lysate (RIPA lysis buffer, protein A + G agarose), LC-MS/MS, to identify proteins that interact with POLI

Substance: X-linked inhibitor of apoptosis (XIAP) (from UniProt P98170 1-497)
- binding: binds
